Test results from paper PMC5671937.
No constants are given. Whether binding was seen depends on the method and setting. Binding seen in cells or lysates may run through a third protein. Some results given as binding are weak or reduced against the parent protein; the word gives no strength.

Chains of the proteins cited; added tags and fusions are not shown.
UniProt P06493: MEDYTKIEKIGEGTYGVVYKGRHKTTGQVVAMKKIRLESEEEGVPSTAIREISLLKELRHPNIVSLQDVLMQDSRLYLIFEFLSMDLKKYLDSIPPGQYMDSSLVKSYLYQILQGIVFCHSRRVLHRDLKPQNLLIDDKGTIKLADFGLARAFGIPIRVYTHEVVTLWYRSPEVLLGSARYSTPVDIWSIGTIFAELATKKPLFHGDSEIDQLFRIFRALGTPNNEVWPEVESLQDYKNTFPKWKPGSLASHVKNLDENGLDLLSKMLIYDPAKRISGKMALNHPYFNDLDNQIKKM
UniProt Q96CX2: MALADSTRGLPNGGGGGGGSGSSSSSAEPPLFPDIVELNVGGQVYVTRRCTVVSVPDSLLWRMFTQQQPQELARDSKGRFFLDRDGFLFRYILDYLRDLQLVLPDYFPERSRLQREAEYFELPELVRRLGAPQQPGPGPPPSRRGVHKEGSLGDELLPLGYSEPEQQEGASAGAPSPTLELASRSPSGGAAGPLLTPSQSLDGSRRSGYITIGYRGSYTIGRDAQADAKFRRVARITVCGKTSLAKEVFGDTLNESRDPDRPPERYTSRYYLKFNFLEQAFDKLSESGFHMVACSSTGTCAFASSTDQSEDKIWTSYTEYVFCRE

How the values were obtained:
[1] = molecular target: cyclin-dependent kinase 1 (CDK1) (human (endogenous in HeLa)) (UniProt P06493); assay: condition: only cells treated with VX-680 (0.5 μM, 24 h); co-IP; HeLa cells treated with the Aurora kinase inhibitor VX-680 (0.5 μM, 24 h); lysate immunoprecipitated, immunoblot
[2] = molecular target: cyclin-dependent kinase 1 (CDK1) (human (endogenous in HeLa)) (UniProt P06493); assay: co-IP; HeLa cells synchronized to M phase, whole-cell lysate, primary antibody overnight at 4 °C, protein A/G Sepharose beads, immunoblot; in some panels cells transfected with wild-type or S243A KCTD12 plasmid (Figure 7c) or treated with DMSO or VX-680 0.5 μM, 24 h (Figure 7b, d)
[3] = molecular target: T1, cell division cycle 25B (CDC25B) (human (endogenous in HeLa)) (UniProt P30305); assay: as above
T1 sequence: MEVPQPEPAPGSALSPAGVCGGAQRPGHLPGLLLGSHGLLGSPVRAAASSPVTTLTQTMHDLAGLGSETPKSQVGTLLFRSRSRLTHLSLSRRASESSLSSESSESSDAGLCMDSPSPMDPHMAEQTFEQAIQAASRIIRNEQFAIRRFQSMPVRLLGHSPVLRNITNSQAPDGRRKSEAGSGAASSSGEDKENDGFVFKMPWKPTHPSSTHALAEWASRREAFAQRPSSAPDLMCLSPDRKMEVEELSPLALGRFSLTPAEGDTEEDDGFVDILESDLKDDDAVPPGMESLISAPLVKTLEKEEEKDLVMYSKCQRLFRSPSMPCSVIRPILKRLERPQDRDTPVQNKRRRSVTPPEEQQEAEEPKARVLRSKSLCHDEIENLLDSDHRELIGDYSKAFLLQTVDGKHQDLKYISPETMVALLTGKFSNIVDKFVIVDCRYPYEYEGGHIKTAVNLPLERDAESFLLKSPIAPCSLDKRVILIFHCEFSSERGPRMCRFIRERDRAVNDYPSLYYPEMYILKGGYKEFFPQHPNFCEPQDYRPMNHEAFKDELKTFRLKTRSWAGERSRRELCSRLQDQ

binding [1]: no binding
binding [2]: binds
binding [3]: binds
Substance: potassium channel tetramerization domain containing 12 (KCTD12) (from UniProt Q96CX2 1-325)
